Data: paper PMC4559358
Results are given in words; binding and its absence hold for the method and conditions named. Binding seen in cells or lysates may run through a third protein. Some binding calls cover weakened binding; strength is not graded here.

Sequences of proteins named here, by UniProt entry; tags and fusion partners are left off. A change or cut given only in a name is not applied to a line headed by its entry. Residues count along the entry.
UniProt Q62418, residues 377-436: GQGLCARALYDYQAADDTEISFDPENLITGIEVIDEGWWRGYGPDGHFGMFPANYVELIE
UniProt Q9Z0W5: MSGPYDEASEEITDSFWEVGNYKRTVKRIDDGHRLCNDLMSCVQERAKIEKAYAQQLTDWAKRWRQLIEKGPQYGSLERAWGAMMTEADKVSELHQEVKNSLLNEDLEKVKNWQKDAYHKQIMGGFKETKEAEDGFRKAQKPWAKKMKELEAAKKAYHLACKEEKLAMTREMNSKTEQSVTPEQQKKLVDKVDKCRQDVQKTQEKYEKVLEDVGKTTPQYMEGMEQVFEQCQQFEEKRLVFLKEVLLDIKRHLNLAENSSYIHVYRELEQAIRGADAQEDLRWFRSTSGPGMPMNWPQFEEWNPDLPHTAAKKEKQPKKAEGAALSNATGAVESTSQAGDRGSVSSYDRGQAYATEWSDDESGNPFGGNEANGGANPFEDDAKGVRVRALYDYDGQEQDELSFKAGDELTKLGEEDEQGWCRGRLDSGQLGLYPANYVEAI
GST-syndapin I SH3 domain: residues 382-441 of Q9Z0W5
UniProt D3ZUI5: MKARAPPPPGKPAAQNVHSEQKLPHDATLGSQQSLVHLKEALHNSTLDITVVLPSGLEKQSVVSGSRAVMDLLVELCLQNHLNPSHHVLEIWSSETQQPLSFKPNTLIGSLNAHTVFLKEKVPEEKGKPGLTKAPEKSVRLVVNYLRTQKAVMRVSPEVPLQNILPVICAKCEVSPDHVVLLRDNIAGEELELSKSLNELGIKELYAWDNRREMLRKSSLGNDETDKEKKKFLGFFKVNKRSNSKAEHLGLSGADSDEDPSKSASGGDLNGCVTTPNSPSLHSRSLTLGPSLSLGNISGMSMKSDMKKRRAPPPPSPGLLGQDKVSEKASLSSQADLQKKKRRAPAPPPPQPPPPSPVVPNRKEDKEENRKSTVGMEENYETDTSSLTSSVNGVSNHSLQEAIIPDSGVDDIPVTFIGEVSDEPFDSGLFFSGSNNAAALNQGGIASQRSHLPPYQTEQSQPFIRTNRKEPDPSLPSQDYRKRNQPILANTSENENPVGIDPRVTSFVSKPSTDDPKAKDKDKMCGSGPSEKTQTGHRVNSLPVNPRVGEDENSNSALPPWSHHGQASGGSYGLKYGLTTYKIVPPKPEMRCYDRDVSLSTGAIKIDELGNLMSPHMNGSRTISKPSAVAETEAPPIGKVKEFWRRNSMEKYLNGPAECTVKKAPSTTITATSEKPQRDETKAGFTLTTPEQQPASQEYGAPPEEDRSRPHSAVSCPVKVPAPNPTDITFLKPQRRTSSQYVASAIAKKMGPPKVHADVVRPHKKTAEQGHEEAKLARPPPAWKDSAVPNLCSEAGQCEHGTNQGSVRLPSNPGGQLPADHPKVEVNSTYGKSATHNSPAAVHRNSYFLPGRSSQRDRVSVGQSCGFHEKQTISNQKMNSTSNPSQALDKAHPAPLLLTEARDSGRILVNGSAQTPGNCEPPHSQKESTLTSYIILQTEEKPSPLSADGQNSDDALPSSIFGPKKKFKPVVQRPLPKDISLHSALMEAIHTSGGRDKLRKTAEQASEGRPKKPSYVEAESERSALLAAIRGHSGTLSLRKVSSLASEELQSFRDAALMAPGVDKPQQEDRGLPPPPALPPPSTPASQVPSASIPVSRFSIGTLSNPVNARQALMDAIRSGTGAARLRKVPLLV

Tests used:
GST-Abp1 SH3 = GST-Abp1 SH3 (UniProt Q62418); experiment: pull-down; purified GST-SH3 domain fusion proteins immobilized on glutathione sepharose, incubated 3 h at 4°C with HEK293 extracts; only the target purified
[1] = molecular target: GST-syndapin I SH3 domain (UniProt Q9Z0W5); experiment: as above
[2] = molecular target: endogenous Cobl (rat brain) (rat (endogenous in rat brain)) (UniProt D3ZUI5); experiment: co-IP; rat brain lysates, guinea pig anti-Cobl antibodies, protein A-agarose, lysis buffer with 30 mM NaCl, 400 μM calpain inhibitor I, with and without 2 μM Ca^2+
GFP-Cobl^1-408 (mouse) = GFP-Cobl^1-408 (mouse) (UniProt Q5NBX1); experiment: co-IP; as a13 but 500 μM Ca^2+; data not shown

Row | binding (GST-Abp1 SH3) | binding [1] | binding [2] | binding (GFP-Cobl^1-408 (mouse)) | Substance
1 | binds | binds |  |  | Flag-GFP-Cobl^1-713∆48–229 (from UniProt Q5NBX1-1 1-713) (domain or fragment)
2 | binds | binds |  |  | Flag-GFP-Cobl^1-713 (from UniProt Q5NBX1-1 1-713) (domain or fragment)
3 |  |  | binds |  | endogenous syndapin I (rat brain) (from UniProt Q9Z0W5 1-441)
4 |  |  |  | binds | Flag-syndapin I (from UniProt Q9Z0W5 1-441)
